The values that follow come from publication PMC7819943, “Rice protein-binding microarrays: a tool to detect cis-acting elements near promoter regions in rice”.

Protein sequences, listed by entry. Tags and fused reporters are not part of them.
UniProt Q0JBA9, entry or part of it: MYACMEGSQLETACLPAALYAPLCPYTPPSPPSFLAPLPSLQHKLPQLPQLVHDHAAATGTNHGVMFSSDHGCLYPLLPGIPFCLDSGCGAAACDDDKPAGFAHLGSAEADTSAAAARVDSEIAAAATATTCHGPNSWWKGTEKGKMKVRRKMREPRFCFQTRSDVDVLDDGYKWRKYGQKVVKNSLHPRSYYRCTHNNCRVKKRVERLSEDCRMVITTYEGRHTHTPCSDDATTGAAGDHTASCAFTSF

The list shows a part of the results.

The target of this assay is OsWRKY34 (Oryza sativa, UniProt Q0JBA9 1-250). The assay can be described thus: protein-binding microarray (RPBM); PBS, 2% BSA, 51.3 ng/ul salmon testes DNA, 50 uM zinc acetate, 200 nM TF, 25 C, 1 h; high values mean tight binding. As to conditions: protein: recombinant; tags: N-terminal polyhistidine and DsRed monomer fusion (pET32a); label: CyDye5-dUTP incorporated in the synthesized complementary strand; 3' TTTTT single-stranded linker to array surface; dsDNA, one strand shown. In outline: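 The binding signal is fluorescence intensity per array feature (arbitrary units). Readings came from an Axon 4000B scanner after a washed, 2% BSA-blocked, double-stranded custom Agilent array had been incubated for 1 h at 25 °C with 200 nM protein and 50 µM zinc acetate. The protein was a Ni–NTA-purified transcription factor fused N-terminally to polyhistidine and DsRed, expressed in E. coli BL21-CodonPlus.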
Turning to “CCCTACCTAGGGTAGGGTAGGGGTAGGGGTAGGGTTGATACGGAGTCACCTAGTGCAG”, the binding signal is 11900 fluorescence intensity (a.u.).

Regarding “TTGTGTTTTTTTTTCTCTTTCTTTTTCTTTTTATTTTCACCGGAGTCACCTAGTGCAG”, the binding signal was 10900 fluorescence intensity (a.u.).

Take “TTTCTCTCCACCACATATCTTCGTTCCTCAACCAGCGACGCGGAGTCACCTAGTGCAG”: the binding signal was 8650 fluorescence intensity (a.u.).

Consider “AAAGAAAACTACTCACATACTGTATCATCTTTATTCTTGCCGGAGTCACCTAGTGCAG”, for which the binding signal is 8660 fluorescence intensity (a.u.).

In the case of “AAGCACTCCACCTCTCACCACCGCAAGTCCGTAACCAACTCGGAGTCACCTAGTGCAG”, the binding signal was 10000 fluorescence intensity (a.u.).

As for “CTCACAACCGTCGCCGTCGCACGCCTACCCCGTCCCTCCGCGGAGTCACCTAGTGCAG”, the binding signal was 8130 fluorescence intensity (a.u.).

With “AGTTTGTACAACATCTTTTTTTTGTTTCAGTTCGTTTCTTCGGAGTCACCTAGTGCAG”, the binding signal is 8110 fluorescence intensity (a.u.).

Take “GGCCTGCCCAGTCCAGAGAGAAGGGTGTGTGTGTTTGTGACGGAGTCACCTAGTGCAG”: the binding signal was 8610 fluorescence intensity (a.u.).

On to “TACTTCCTGTATATACTTTTGCTTCATTCCTTATAATAGTCGGAGTCACCTAGTGCAG”, for which the binding signal is 11400 fluorescence intensity (a.u.).

Take “TCGTTCTTGTCGATCTCTGTGTGTGTTCTTCGTCGTCGTCCGGAGTCACCTAGTGCAG”: the binding signal is 8190 fluorescence intensity (a.u.).

With “TAGTGTTTCTTGGCGGCAATGGTTTCTTTTCTCCTTTGACCGGAGTCACCTAGTGCAG”, the binding signal is 9970 fluorescence intensity (a.u.).

For “GCAACTCACGGTCACGGCCACCTCTTCAGCTTTACTTCCTCGGAGTCACCTAGTGCAG”, the binding signal is 10800 fluorescence intensity (a.u.).

As for “TCAACATGGCTGCCATCTACTGAGGTTCATTTTTCAGGTTCGGAGTCACCTAGTGCAG”, the binding signal was 9510 fluorescence intensity (a.u.).

As to “ACGCCGCTCACACTCTGCCTATCTATTTGCATGGCATACTCGGAGTCACCTAGTGCAG”, the binding signal was 13200 fluorescence intensity (a.u.).

“CCAACCGTCCTCCGGTCTCTCCTGTTCTTCGCTCGATCCTCGGAGTCACCTAGTGCAG”: the binding signal was 11300 fluorescence intensity (a.u.).

On to “GGCAATCAACTTGTGGCAAGGCGTGTGTGGTTTAAATATACGGAGTCACCTAGTGCAG”, for which the binding signal is 8320 fluorescence intensity (a.u.).

As for “GTGGGTGTTTGCGAGCTTTTGTTCGTATGCTTTTTTACTTCGGAGTCACCTAGTGCAG”, the binding signal is 9960 fluorescence intensity (a.u.).

For the sequence “CCTACTTTCTTAATAACCGTATCCAACCCTATAACTTCTTCGGAGTCACCTAGTGCAG”, the binding signal was 8390 fluorescence intensity (a.u.).

As to “GTCTATTTAATCCTGTATCACGCCCAGATTCCTGAGTCCACGGAGTCACCTAGTGCAG”, the binding signal is 8450 fluorescence intensity (a.u.).

As to “CAACGACGTGGGCTCGCGACTCCATCTTCCAGGCCTGCCCCGGAGTCACCTAGTGCAG”, the binding signal is 11100 fluorescence intensity (a.u.).

Turning to “CTTCCTCGCCGGCTCGCGCGGATTCGATGGGTTGTTGATTCGGAGTCACCTAGTGCAG”, the binding signal is 8550 fluorescence intensity (a.u.).

Consider “CCTTTTCTCCTCTTTCTTTCTTCACTAATCAATCAACTTACGGAGTCACCTAGTGCAG”, for which the binding signal was 8940 fluorescence intensity (a.u.).

As for “TTTCTTCTCATCTAAGTAATGTGGGTGTTTCTTTGGGTTCCGGAGTCACCTAGTGCAG”, the binding signal is 9080 fluorescence intensity (a.u.).

With “ATTATTTTGGATCACCCTTTGTTTCCAATTTTTTCACTTTCGGAGTCACCTAGTGCAG”, the binding signal is 10400 fluorescence intensity (a.u.).

On to “GAACAAACTTTCAAAAACATGTACTCTCTTTGTTTCATATCGGAGTCACCTAGTGCAG”, for which the binding signal was 10600 fluorescence intensity (a.u.).

“CGCGCGGTCTCGCACTTTTATCACGTGATACCGTCCGTGACGGAGTCACCTAGTGCAG”: the binding signal is 9840 fluorescence intensity (a.u.).

In the case of “CACCTTACTCGCGCCGCGCGCGCCGCCGTCGACGGCAGCCCGGAGTCACCTAGTGCAG”, the binding signal was 8230 fluorescence intensity (a.u.).

In the case of “AACTTAACAGCTCAAGCTTAATTCTGGGCCAAATTCACCACGGAGTCACCTAGTGCAG”, the binding signal was 9090 fluorescence intensity (a.u.).

Turning to “TTCGCTCCGTTTTCATCCCTATTTGCAAGTACTGTACATTCGGAGTCACCTAGTGCAG”, the binding signal was 9640 fluorescence intensity (a.u.).

In the case of “CTTTTTGTTTTCTTGATTATAGCATCCCAGAGTTTATGTTCGGAGTCACCTAGTGCAG”, the binding signal is 9320 fluorescence intensity (a.u.).

Take “TAACTCATCCCTCTTGTTTTCTATACACATATTTTCAAACCGGAGTCACCTAGTGCAG”: the binding signal is 8470 fluorescence intensity (a.u.).

“CTTCGCTCCACCCGTCTACGTCTGTTTGTTGTATTCCCCTCGGAGTCACCTAGTGCAG”: the binding signal was 11900 ± 175 fluorescence intensity (a.u.).

For “AAACACAGCCTTATTTTGGGACAGAGCGAGTATTGACTTTCGGAGTCACCTAGTGCAG”, the binding signal was 8400 fluorescence intensity (a.u.).

“TCCCACACTGGGTTTTGACGTTCTGTTGATTCCTCTTATTCGGAGTCACCTAGTGCAG”: the binding signal was 12600 fluorescence intensity (a.u.).

Take “TATTACACATACCGGTTTTGCTAGATGATTGGCTATCATCCGGAGTCACCTAGTGCAG”: the binding signal was 9340 fluorescence intensity (a.u.).

Consider “TCAGTGGACTCGGTTCTGTTTTTTTGTCACTCCACTGGCACGGAGTCACCTAGTGCAG”, for which the binding signal was 9610 fluorescence intensity (a.u.).

As to “GGGATACAGTGGTCTTATGTCACTGTTTCTAAGGTATACCCGGAGTCACCTAGTGCAG”, the binding signal was 8190 fluorescence intensity (a.u.).

Regarding “AAACTTTCAACTTTTTTATCGCATCGTTTCAATTTCAACCCGGAGTCACCTAGTGCAG”, the binding signal was 8150 fluorescence intensity (a.u.).

For “CCCGTTTGAGCCACACCATTCTCATCTATTTAAATGCCTTCGGAGTCACCTAGTGCAG”, the binding signal was 11800 fluorescence intensity (a.u.).

Turning to “GGGTTTGTCTTTTTTCCTTTTTTTTTTTTTTTTTTTCGGACGGAGTCACCTAGTGCAG”, the binding signal was 13000 fluorescence intensity (a.u.).

For the sequence “TCACCGCTCCTGGCCAACCCTCACCTACCGGTGCGCTCGACGGAGTCACCTAGTGCAG”, the binding signal is 8310 fluorescence intensity (a.u.).

For the sequence “GCCGCCGCCGCCGCCACTCCGCCCCGCCATGGCCGCTCTCCGGAGTCACCTAGTGCAG”, the binding signal is 8490 fluorescence intensity (a.u.).

For “AACCGATGTGCTCTCAGTTGCCCACGGCTGCTCAACTGGACGGAGTCACCTAGTGCAG”, the binding signal was 8130 fluorescence intensity (a.u.).

Consider “TCCAATTCCATCGCTTTTCTGTTCTTCCATCCTCGTCGTGCGGAGTCACCTAGTGCAG”, for which the binding signal is 9600 fluorescence intensity (a.u.).

“ATAATGCAAAATTGCAATTTGCAACCCCACCATGCCATTTCGGAGTCACCTAGTGCAG”: the binding signal was 8850 fluorescence intensity (a.u.).

On to “TCCCTACCGTCCATCCGCGCGATTTCATTCACCAACGCATCGGAGTCACCTAGTGCAG”, for which the binding signal is 8300 fluorescence intensity (a.u.).

In the case of “ATGTCATTTGTGTATGAGTCGGTTTTCAAGTTCGTTCGCTCGGAGTCACCTAGTGCAG”, the binding signal is 10100 fluorescence intensity (a.u.).

As to “ACTTCTTAGGCTCCGTTTAGCTTCTTAGGTTGGTTTTTTTCGGAGTCACCTAGTGCAG”, the binding signal is 10700 fluorescence intensity (a.u.).

On to “ATGTTTCCGTATTCATGTCCGATCAAATTCGATTCTTATTCGGAGTCACCTAGTGCAG”, for which the binding signal was 10800 fluorescence intensity (a.u.).

With “CAGCGCCCACGTCATCACCGGTCGGAGGGGAAAAACATCTCGGAGTCACCTAGTGCAG”, the binding signal was 9470 fluorescence intensity (a.u.).

Consider “ATCGTCACCTCTCGAACTATTTTCTTGTTGCTTGTTGTAACGGAGTCACCTAGTGCAG”, for which the binding signal was 10300 fluorescence intensity (a.u.).

Take “TGACAGCTACCGTCTTCTCGTCTGACCCGAGTCCGAGTCGCGGAGTCACCTAGTGCAG”: the binding signal was 8650 fluorescence intensity (a.u.).

Consider “ACACCTTCAATCGCTCTCTCATGAATTAACCGAACAAGACCGGAGTCACCTAGTGCAG”, for which the binding signal is 9340 fluorescence intensity (a.u.).

On to “TTTTGCGAGGTGGTCGTCTTGTTCCGGGGCACCGTCACGCCGGAGTCACCTAGTGCAG”, for which the binding signal was 8250 fluorescence intensity (a.u.).
